These results are taken from patent US9758537B2 (Achillion Pharmaceuticals, Inc., priority 2014, dated 2017).

The chains behind the UniProt entries cited, without tags or fusion partners. Residues count along the entry.
UniProt P00746, 26-253: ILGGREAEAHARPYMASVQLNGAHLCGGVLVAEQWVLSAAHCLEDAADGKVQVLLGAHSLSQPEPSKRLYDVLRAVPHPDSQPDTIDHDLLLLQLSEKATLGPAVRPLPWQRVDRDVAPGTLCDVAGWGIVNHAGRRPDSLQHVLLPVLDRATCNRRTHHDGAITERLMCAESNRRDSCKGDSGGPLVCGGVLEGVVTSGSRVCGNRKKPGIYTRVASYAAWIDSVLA

A word on the IC50: it is the concentration that gives 50% inhibition. Read a high IC50 as lower potency.

The test has as its target Human factor D (Homo sapiens (Human), UniProt P00746). The test is described as follows: Human Factor D Assay. It counts as biochemical. The following applies: human factor D 80 nM, substrate Z-L-Lys-SBzl, DTNB, OD405. How it is done:
Human factor D (purified from human serum, Complement Technology, Inc.) at 80 nM final concentration is incubated with test compound at various concentrations for 5 minutes at room temperature in 50 mM Tris, 1M NaCl, pH 7.5. A synthetic substrate Z-L-Lys-SBzl and DTNB (Ellman's reagent) are added to final concentrations of 10 μM each. The increase in color is recorded at OD405 nm in a microplate in kinetic mode over 30 minutes with 30 second time points in a […]. IC50 values are calculated by non-linear regression from the percentage of inhibition of complement factor D activity as a function of test compound concentration.

Regarding `CC(=O)c1cn(CC(=O)N2C[C@H](F)C[C@H]2C(=O)NC2Cc3ccccc3C2)c2ccccc12` [Compound 43, (2S,4R)-1-(2-(3-acetyl-1H-indol-1-yl)acetyl)-N-(2,3-dihydro-1H-inden-2-yl)-4-fluoropyrrolidine-2-carboxamide], the IC50 is < 1 µM.
